In publication PMC6433946:
These are yes or no findings as the source states them, for the method shown. Binding seen in cells or lysates may run through a third protein. Some entries that bind do so weakly or less than the wild type.

The chains behind the UniProt entries cited, without tags or fusion partners. Residues count along the entry.
UniProt O95817: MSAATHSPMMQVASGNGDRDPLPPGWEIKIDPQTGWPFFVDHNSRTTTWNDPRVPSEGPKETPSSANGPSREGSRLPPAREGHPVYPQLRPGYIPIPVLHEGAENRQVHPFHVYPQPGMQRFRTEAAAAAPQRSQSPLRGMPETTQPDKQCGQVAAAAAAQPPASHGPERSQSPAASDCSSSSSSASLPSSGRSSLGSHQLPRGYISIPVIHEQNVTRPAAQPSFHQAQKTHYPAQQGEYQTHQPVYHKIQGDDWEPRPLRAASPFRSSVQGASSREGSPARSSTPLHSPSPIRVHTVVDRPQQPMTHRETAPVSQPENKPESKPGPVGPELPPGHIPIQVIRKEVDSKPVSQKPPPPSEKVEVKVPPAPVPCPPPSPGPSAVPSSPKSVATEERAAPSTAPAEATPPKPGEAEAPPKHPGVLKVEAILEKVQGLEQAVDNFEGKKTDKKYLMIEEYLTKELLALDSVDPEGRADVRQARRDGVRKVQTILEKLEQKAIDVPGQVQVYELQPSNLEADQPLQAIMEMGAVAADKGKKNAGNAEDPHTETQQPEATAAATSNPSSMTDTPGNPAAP
UniProt O94925, residues 55-669: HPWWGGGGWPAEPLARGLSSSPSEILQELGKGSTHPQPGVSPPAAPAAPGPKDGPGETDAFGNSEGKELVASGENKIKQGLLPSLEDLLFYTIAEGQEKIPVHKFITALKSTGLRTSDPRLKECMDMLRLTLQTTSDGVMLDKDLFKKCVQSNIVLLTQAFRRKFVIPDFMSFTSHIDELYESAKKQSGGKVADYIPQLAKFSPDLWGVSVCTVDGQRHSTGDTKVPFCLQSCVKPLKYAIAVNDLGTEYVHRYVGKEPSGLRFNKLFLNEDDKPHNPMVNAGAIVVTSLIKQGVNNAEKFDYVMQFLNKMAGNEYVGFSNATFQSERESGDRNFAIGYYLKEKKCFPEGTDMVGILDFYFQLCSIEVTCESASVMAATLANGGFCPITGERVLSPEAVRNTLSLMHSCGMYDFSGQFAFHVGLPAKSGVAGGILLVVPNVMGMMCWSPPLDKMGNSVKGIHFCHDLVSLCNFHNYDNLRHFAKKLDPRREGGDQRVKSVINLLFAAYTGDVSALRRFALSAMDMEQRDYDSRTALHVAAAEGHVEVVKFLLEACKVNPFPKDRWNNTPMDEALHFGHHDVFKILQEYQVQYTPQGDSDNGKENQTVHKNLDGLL

Biological target: Bcl-2 associated athanogene 3 (BAG3) (human) (UniProt O95817)
Experiment: co-IP; Lysates of HepG2 cells; primary antibody or IgG overnight at 4 °C, Protein-A/G beads, Western blot; lysis buffer 20 mM Tris-HCl, 150 mM NaCl, 2 mM EDTA, 1% NP-40

## glutaminase (GLS) (from UniProt O94925 55-669) (enzyme)
  binding: binds
